Measurements from “University of Dundee, Small-Polar-MMV Screening Library” (2021), ChEMBL document CHEMBL3988442.

Results are given as percent effect.
The controls that fix the scale are not given in the record; negative values are as filed.
Compounds were drawn at random from those tested, without regard to their results.
Two or more numbers in one place are separate tests of the same structure; such repeats can differ widely.

A: 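Phenotypic screen: M. tuberculosis growth, cholesterol and DPPC medium, 4 days; the read-out is not stated. Tested at 50 µM. Higher reads as more growth inhibition (inferred: compounds with an IC50 in retests scored well above the rest). About 69,000 compounds were tested under these conditions; 0.54% (about 370) showed 50% or more at least once.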
B: 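Whole-cell growth test on Mycobacterium tuberculosis, read after 3 days in glucose-containing 7H9 medium; the read-out is not stated. Compounds at 50 µM. Direction is inferred from retests: higher values go with more growth inhibition. Of about 69,000 compounds tested this way, about 760 (1.1%) reached 50% or more in at least one test.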

O=C(NCc1cccnc1)C1=NN(c2ccccc2)C(=O)CN1 gave A: -3.759%; B: 18.82%. For COCCCN1CC2(CCCCN2C(C)=O)CC1=O (centres unmarked) the result was A: 6.849%; B: 3.131% and 16.4%. For CN(Cc1ccco1)c1ccc(C(=O)NCCCc2ccccn2)cn1 the result was A: -11.8%; B: 25.85%. Cc1cc(C(=O)CN(Cc2cccnc2)CC2CCCO2)c(C)[nH]1 (centres unmarked) read A: -21.11%; B: -15.32%.

With COc1ccc(CN2CCCC2)cc1Oc1ccc2c(c1)CC(CN)O2 (centres unmarked) the screen gave A: -2.664%; B: 3.446% and -14.5%. CN(C)CCN1CCC2(CC1)CN(Cc1cccnc1)C(=O)CO2.O=C(O)C(F)(F)F.O=C(O)C(F)(F)F.O=C(O)C(F)(F)F read A: 1.68%; B: -15.86%. Result for O=S(=O)(CC1CCOCC1)NCc1ncc(-c2ccccc2)o1 was A: -8.945%; B: -5.549%. CNC(=O)CN1CCOCC2(CCCN(Cc3cccnc3)C2)C1.O=C(O)C(F)(F)F.O=C(O)C(F)(F)F.O=C(O)C(F)(F)F (centres unmarked) gave A: -16.01% and 20.77%; B: -9.973%.

CN1C(=O)CO[C@H](c2ccc(NC(=O)c3cccc(F)c3)cc2)[C@H]1CO gave A: -16.13%; B: -7.263% and 0.001354%. Cc1cnn(CC2CCCN2C(=O)c2cc(O)nc3ccccc23)c1 (centres unmarked) gave A: 6.066%; B: -6.216%. For O=C(O)C(F)(F)F.O=C(O)C(F)(F)F.O=C(O)C(F)(F)F.[H][C@@]12CCN(Cc3cccnc3)C[C@]1([H])[C@H](C(=O)Nc1cccnc1)CCO2 the result was A: -8.91%; B: -8.146%. CCCOc1c(Cl)cc(C(=O)N2CCOC23CCN(C)CC3)cc1Cl gave A: 42.81%; B: 44.84%.

With Cc1cc(N2CCc3c(ncn3C)C2)nc(N)n1 the screen gave A: -4.306% and 4.061%; B: 5.514%. For C[S+]([O-])c1ccc(NC(=O)Cc2cccnc2)cc1F (centres unmarked) the result was A: -3.735%; B: -9.284%. With [H][C@]12CC[C@]([H])(CN(c3ncccn3)C1)N(Cc1ccc(S(C)(=O)=O)cc1)C2 the screen gave A: 2.911%; B: 12.32%. With Cc1nonc1CN1CC[C@@](O)(C2CCC2)[C@H](C)C1 the screen gave A: 12.22%; B: -24.24% and 0.6941%.

With Fc1ccc(CN2CCCC2Cn2cncn2)c2ncccc12 (centres unmarked) the screen gave A: -34.51%; B: 11.72% and -7.089%. CC(=O)NCCC(=O)Nc1cccc(N2CCN(CC3CC3)CC2)c1 read A: -14.72%; B: -0.2919%. Result for [H][C@]12CC[C@]([H])(CN(Cc3ccc(-n4cccn4)cc3)C1)N(CCC)C2 was A: 67.49%; B: 81.87%. For O=C(CCC1CCCC1)N1CCC(c2cc3ncccc3c(O)n2)CC1 the result was A: 49.71%; B: 34.8%.

Cc1ccn(CC(=O)Nc2cc(-c3ccncc3)[nH]n2)n1 gave A: 18.86%; B: 31.69%. Result for CCO[C@@H]1CCN(C(=O)c2cscn2)[C@@H]1Cc1cnn(C)c1 was A: -5.678%; B: 3.051%. CN1CC(=O)N(c2ccccc2)CC12CCN(CC1CC1)C2.O=C(O)C(F)(F)F.O=C(O)C(F)(F)F (centres unmarked) gave A: 0.1646%; B: 9.966%. With O=C1NCCN(Cc2ccccc2)C1CC(=O)N1CCc2n[nH]cc2C1 (centres unmarked) the screen gave A: -41.68%; B: -1.23% and 6.962%.

Result for CCCN(C(=O)c1csnn1)C1CCCN(Cc2ccccc2)C1 (centres unmarked) was A: 3.453%; B: -37.01%. With C[C@@H]1CN(C(=O)c2ccsc2)C[C@]12CCN(c1ccsc1)C2=O the screen gave A: -7.119%; B: 20.49%. With CCc1n[nH]c(C2CN(C(=O)Cc3ccc(C)nc3)CCO2)n1 (centres unmarked) the screen gave A: -13.91%; B: -13.2% and -3.837%. CN(C)C(CNC(=O)NCCS(C)(=O)=O)c1ccco1 (centres unmarked) gave A: -18.37%; B: 6.804%.

CC(C)(C)C(=O)NCCC(=O)NS(=O)(=O)c1cccnc1 read A: -15.83%; B: -8.89% and 1.194%. With CS(=O)(=O)N1CCC2(CCN(C(=O)c3cccnc3)CC2)C1.O=C(O)C(F)(F)F the screen gave A: 24.46%; B: -14.72%. N#Cc1ccc(CN2CCCCC2Cn2cccn2)cc1 (centres unmarked) read A: -15.81%; B: -8.318% and -40.63%. With COc1ccc(S(=O)(=O)N2CCc3ccc(Cl)cc32)cc1C(=O)O the screen gave A: 3.374%; B: -15.64%.

With Cc1nc2ccc(C(=O)N3C[C@@H](O)[C@H](N4CCOCC4)C3)cc2[nH]1 the screen gave A: -31.85%; B: 16.14%. For Fc1ccccc1CC1CCN(Cc2cscn2)CC1 the result was A: 21.66%; B: 28.71%. Cc1ccsc1CN1CCC(c2nnc(Cn3cccn3)n2C)CC1 read A: 1.544%; B: -16.54%. For OCC1(CCOc2ccccc2)CCCN(c2ccc(Cl)cn2)C1 (centres unmarked) the result was A: 15.99% and 6.352%; B: -2.411%.

CC(C)c1nn(C)c(N(C)C)c1CNCc1ccc(CO)c(F)c1 read A: 4.483%; B: 6.274%. Result for CCCNC(=O)NCc1ccccc1NS(=O)(=O)c1ccccc1 was A: 2.86% and -12.48%; B: -17.17%. Cc1n[nH]c(C)c1C1CCCN1C(=O)NC(C)(C)C (centres unmarked) gave A: 19.03%; B: 23.61%. With CC1CN(C)c2ccccc2CN1C(=O)CSc1ccncc1 (centres unmarked) the screen gave A: 15.16%; B: 11.8% and -0.7977%.

[H][C@@]12CCN(C[C@@H]1CN(CC)CC)[C@@H](CNC(=O)Nc1ccsc1)C2 gave A: -13.89%; B: 1.847% and -20.45%. For CC(C)(C)OC(=O)N1CCC(C(=O)NCc2ccccc2)C1 (centres unmarked) the result was A: -18.07%; B: -4.001%. For Cc1nccn1-c1cccc(C2CCCN(C3CCCC3)C2)n1 (centres unmarked) the result was A: -3.405%; B: 2.408%. For COc1cccc(-c2nc(C)c(C(=O)N[C@@H](CC(C)C)C(=O)O)s2)c1 the result was A: 19.35%; B: -17.48%.

Result for O=C(O)C(F)(F)F.O=C(O)C(F)(F)F.O=c1ccc2c(n1Cc1cccnc1)CCN(CC1CCOC1)CC2 (centres unmarked) was A: -2.045%; B: -11.43% and -4.375%. For Cl.Cn1ccnc1CNC(=O)c1cnc(C2CCNCC2)cn1 the result was A: 6.215% and -2.887%; B: -1.209%.